Measurements published in ChEMBL document CHEMBL2380236, “Core refinement toward permeable β-secretase (BACE-1) inhibitors with low hERG activity” (J Med Chem, 2013).

Assay: physchem

Structure (SMILES)	chromatographic logD
COc1cccc(-c2cccc(C3(C)CSCC(N)=N3)c2)c1 (configuration not stated)	2.2
COc1cccc(-c2cccc(C3(c4ccncc4)N=C(N)CS3)c2)c1 (configuration not stated)	3.3
